Library screen at single concentrations

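Growth of Mycobacterium tuberculosis over 4 days (cholesterol / DPPC medium with tyloxapol); the read-out is not stated. Compounds at 50 µM. Direction is inferred from retests: higher values go with more growth inhibition. Of about 69,000 compounds tested this way, about 370 (0.54%) reached 50% or more in at least one test.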

Values are the deposited “Percent Effect”, in %.
The record does not define 0% and 100%; most values in the screen are far below 50% and negative numbers occur (in some assays of this library far below -100).
Compounds were drawn at random from those tested, without regard to their results.
Two or more numbers in one place are separate tests of the same structure; such repeats can differ widely.

| # | structure | Percent Effect |
|---|---|---|
| 1 | `CCOCCC(=O)Nc1cccc(Oc2ccccn2)c1` | -10.72% |
| 2 | `COCCCN1C(=O)CC(N2CCN(c3ccc(F)cc3)CC2)C1=O` (stereo not shown) | -38.26% |
| 3 | `O=c1c2cnc(N3CCCCC3)nc2ccn1Cc1ccco1` | 34.56% |
| 4 | `CCC(Nc1nnnn1-c1ccccc1)C(=O)NCc1cccs1` (stereo not shown) | 0.4871% |
| 5 | `O=C(C1CCOCC1)N1CCC2(CCN(Cc3nccs3)CC2)CC1.O=C(O)C(F)(F)F` | -7.759% |
| 6 | `Cc1ccc(-c2ccnc(N[C@H]3COC[C@@H]3N3CCCC3)n2)c(C)n1` | 4.573% |
| 7 | `Cc1nc(C)n(CC2CCCN(Cc3cccc(F)c3F)C2)n1` (stereo not shown) | -10.91% |
| 8 | `Cn1cc(CCCN2CCN(C(=O)c3cccc(O)c3)CC2)cn1` | -3.412% |
| 9 | `Cc1n[nH]cc1CNC1CCN(c2ccccc2)CC1.Cl` | 0.9591% |
| 10 | `COc1ccc(NC(=O)N2CCC3(CC2)NC(=O)CC3C(=O)O)c(C)c1` (stereo not shown) | -3.062% and 2.658% |
| 11 | `CCN(C)c1ncnc2c1CCN(C(=O)c1ccoc1C)CC2.O=C(O)C(F)(F)F` | -29.66% |
| 12 | `CC(=O)N[C@@H]1CN(C(=O)c2ccc[nH]2)C[C@H]1c1ccc(C)o1` | -12.98% |
| 13 | `O=C(O)C(F)(F)F.O=C(O)C(F)(F)F.[H][C@@]12C[C@H](C(=O)NC3CC3)CN(Cc3ccc4ccccc4n3)[C@]1([H])CCO2` | 14.44% and -7.34% |
| 14 | `CCOc1ccccc1NC(=O)NCc1ccoc1` | 6.587% |
| 15 | `O=C(Nc1nccs1)NC1CCN(Cc2ccccc2)C1` (stereo not shown) | 3.41% |
| 16 | `C[C@@H](O)CNC(=O)c1nc(CC(=O)Nc2cccc(C(F)(F)F)c2)no1` | -5.248% |
| 17 | `O=C(c1ccc(NC2CC2)nc1)N1CCC(Nc2cccnn2)CC1` | 1.113% |
| 18 | `Cc1cc(F)ccc1S(=O)(=O)NCC(O)c1cccn1C` (stereo not shown) | -14.34% |
| 19 | `Cc1ccc(S(=O)(=O)NCC2CNCCOC2)cc1Cl` (stereo not shown) | -29.53% |
| 20 | `Cc1cnn(CC2CCCN2Cc2noc(C(C)C)n2)c1` (stereo not shown) | -9.228% |
| 21 | `CCc1nc(C2CCCN2CCCS(N)(=O)=O)no1` (stereo not shown) | 0.2609% |
| 22 | `CC(C)C[C@H](NC(=O)Cc1csc(-c2cccc(Cl)c2)n1)C(=O)O` | 2.4% |
| 23 | `CCN1CCN(c2ccc(CNC(=O)Cc3c(C)noc3C)cn2)CC1` | -6.255% |
| 24 | `O=C1NCC2CN(Cc3ccccc3OCc3ccccn3)CCN12` (stereo not shown) | -9.727% |
| 25 | `CNc1snc(C)c1C(=O)N1CCC(Nc2ccc(C)nn2)CC1` | 1.363% |
| 26 | `O=C(O)C(F)(F)F.[H][C@@]12C[C@@H](c3nc(C)no3)CN(Cc3sccc3C)[C@]1([H])CCO2` | 33.23% |
| 27 | `CC(NC(N)=O)C(=O)Nc1ccc(OCc2cccc(F)c2)c(F)c1` (stereo not shown) | 8.925% |
| 28 | `CN(C)S(=O)(=O)Nc1ccc(-n2nncc2C(F)(F)F)cc1` | -18.96% |
| 29 | `[H][C@@]12CCN(C(=O)Cc3cccs3)C[C@]1([H])OCCNC2=O` | -5.856% |
| 30 | `CNc1nc(C2CCCCN2C(=O)C(C)(C)OC)nc2c1CN(C)CC2` (stereo not shown) | 1.772% |
| 31 | `CNc1ncc(C(=O)N2CCC(c3ccccc3C(=O)O)C2)cn1` (stereo not shown) | 22% |
| 32 | `Cc1ccc2c(c1)Oc1ncccc1C(=O)N2` | 20.58% |
| 33 | `COc1ccc(CNC(=O)NC2CCN(CC(F)F)CC2)cc1C` | -8.095% |
| 34 | `COCC(=O)NCc1cc(=O)n2c(n1)CN(Cc1ccoc1)CCC2` | 4.172% |
| 35 | `NC(=O)C1CN(Cc2c(O)ccc3oc4c(c23)CCCC4)CCO1` (stereo not shown) | -13.32% |
| 36 | `O=C([C@H]1CCCO1)N1CCc2ncc(CN3CCOCC3)n2CC1` | -12.43% and 12.85% |
| 37 | `O=C(CCC(=O)N1CCc2[nH]c3ccccc3c2C1)NCc1ccco1` | -19.31% |
| 38 | `CCOCCN1CCN(Cc2nnc(-c3occc3C)o2)CC1CC` (stereo not shown) | 14.62% |
| 39 | `CCNc1ncc(C(=O)NC(CCN(C)C)c2ccccc2)cn1` (stereo not shown) | -36.85% |
| 40 | `Cc1nc(C)n(CC2CCCN(Cc3nnc(C4CC4)o3)C2)n1` (stereo not shown) | -10.6% and -0.5258% |
| 41 | `CC1(C)CC(N(Cc2ccccc2)Cc2cccnc2)CC(C)(C)N1.O=C(O)CC(O)(CC(=O)O)C(=O)O` | 3.296% |
| 42 | `O=c1[nH]c(CCN2CCCC2Cn2cncn2)nc2ccccc12` (stereo not shown) | 0.06542% |
| 43 | `CN(C)C(=O)CN1CCN(c2ccnc3c(F)ccc(F)c23)CC1` | -11.93% |
| 44 | `COc1ccccc1OCCN(C)c1cc(C)nc(N)n1` | -24.65% |
| 45 | `CC(=O)N1CCN(C(=O)c2cccc(OCc3cscn3)c2)CC1` | -8.361% |
| 46 | `O=c1c(NCCc2ccc(O)cc2)c(NCc2ccccn2)c1=O` | -8.386% |
| 47 | `CCCN(Cc1cnn(C)c1)S(=O)(=O)c1ccc(F)c(C#N)c1` | -14.59% |
| 48 | `CC(=O)Nc1nc(C2CCN(C(=O)Cc3ccccc3)CC2)cs1` | -10.73% |
| 49 | `CNc1cc2c(nn1)CCN(C(=O)c1ccoc1)C2` | -11.24% |
| 50 | `O=C(NCCc1cccc(Cl)c1)C1CCOCC1` | 4.114% |
| 51 | `CCCN1CCc2[nH]cnc2C12CCN(C(=O)Cn1ccnc1C)CC2` | -9.131% |
| 52 | `CCS(=O)(=O)CCSc1cccc(C#N)c1` | 0.5849% |
| 53 | `Cn1cnnc1S(=O)(=O)C1CCN(S(=O)(=O)C2CC2)CC1` | -13.89% |
| 54 | `CC1CCCCN1CCNC(=O)NCc1ccc(C#N)cc1F` (stereo not shown) | -2.51% and -122.7% |
| 55 | `CCC[C@H]1CN(CCS(C)(=O)=O)C[C@@H]1NC(=O)c1cc(CC)on1` | 10.05% |
| 56 | `CN(CCc1cn[nH]c1)C(=O)CCc1ccc(Cl)cc1` | 19.32% |
| 57 | `[H][C@]12CC[C@]([H])(CN(Cc3ccccc3)C1)N(C(=O)CC(F)(F)F)C2` | 8.871% |
| 58 | `CC(C)N(C(=O)CN(C)C1CCc2ccccc21)C(C)C` (stereo not shown) | 2.878% |
| 59 | `[H][C@@]12CCN(C[C@@H]1CN1CCc3ccccc31)[C@@H](CNC(=O)COC)C2` | 7.957% |
| 60 | `COCC(=O)N1CCN(c2cc(C)nc(C3CCCN3C(C)=O)c2)CC1` (stereo not shown) | -10.47% |
| 61 | `COC(=O)c1ncccc1N1CCCC1` | -3.307% |
| 62 | `COC(=O)c1cccn1C1CCN(C(=O)c2cc(C)ccc2O)CC1` | -15.91% |
| 63 | `Cc1nc2c(c(=O)[nH]1)CN(Cc1ccc3c(c1)CCCN3C)CC2` | -2.473% and 0.6428% |
| 64 | `CCOCCC(=O)NCC1COc2c(cccc2OC)C1` (stereo not shown) | 0.7484% and -0.6294% |
| 65 | `CCn1c(C(=O)N2CCN(C(=O)COC)CC2)cc2ccccc21` | 6.268% |

The first 8 entries again:

With CCOCCC(=O)Nc1cccc(Oc2ccccn2)c1 the screen gave -10.72%.
With COCCCN1C(=O)CC(N2CCN(c3ccc(F)cc3)CC2)C1=O (stereo not shown) the screen gave -38.26%.
With O=c1c2cnc(N3CCCCC3)nc2ccn1Cc1ccco1 the screen gave 34.56%.
With CCC(Nc1nnnn1-c1ccccc1)C(=O)NCc1cccs1 (stereo not shown) the screen gave 0.4871%.
With O=C(C1CCOCC1)N1CCC2(CCN(Cc3nccs3)CC2)CC1.O=C(O)C(F)(F)F the screen gave -7.759%.
With Cc1ccc(-c2ccnc(N[C@H]3COC[C@@H]3N3CCCC3)n2)c(C)n1 the screen gave 4.573%.
With Cc1nc(C)n(CC2CCCN(Cc3cccc(F)c3F)C2)n1 (stereo not shown) the screen gave -10.91%.
With Cn1cc(CCCN2CCN(C(=O)c3cccc(O)c3)CC2)cn1 the screen gave -3.412%.

The values are deposited in ChEMBL (CHEMBL3988442, “University of Dundee, Small-Polar-MMV Screening Library” (2021)).